This test concerns the target T1, EGFP-PLPPR1 (Phospholipid Phosphatase-Related Protein Type 1) (UniProt Q8BFZ2).
T1 sequence: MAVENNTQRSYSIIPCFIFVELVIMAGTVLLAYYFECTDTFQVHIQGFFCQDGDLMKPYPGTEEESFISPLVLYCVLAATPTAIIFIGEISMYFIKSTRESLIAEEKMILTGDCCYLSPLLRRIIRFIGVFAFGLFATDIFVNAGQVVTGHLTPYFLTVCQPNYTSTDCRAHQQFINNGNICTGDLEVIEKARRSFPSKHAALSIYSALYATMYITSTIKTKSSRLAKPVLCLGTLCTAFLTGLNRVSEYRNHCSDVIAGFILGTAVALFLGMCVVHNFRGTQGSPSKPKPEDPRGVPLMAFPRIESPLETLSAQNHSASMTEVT
Description: co-IP.

No constants are given. Whether binding was seen depends on the method and setting. In cells and extracts the contact can be indirect. Binding can be weak; no strength is given. Where a sequence is shown, tags or fusion partners need not be part of it.

Turning to “RhoGDI (Rho Guanine Nucleotide Dissociation Inhibitor) (mouse (endogenous in Neuro2a))”, the binding entry is listed as “binds”.

The values are drawn from paper doi:10.1101/470914.
